Assay results reported in US20230025525A1 (HELMHOLTZ ZENTRUM M NCHEN DEUTSCHES FORSCHUNGSZENTRUM F R …, published 2023).
No constants are given. Whether binding was seen depends on the method and setting. Some binding calls cover weakened binding; strength is not graded here.

T1: mouse IGFR-like receptor (mouse) (UniProt A2AFS3)
T1 sequence (looked up): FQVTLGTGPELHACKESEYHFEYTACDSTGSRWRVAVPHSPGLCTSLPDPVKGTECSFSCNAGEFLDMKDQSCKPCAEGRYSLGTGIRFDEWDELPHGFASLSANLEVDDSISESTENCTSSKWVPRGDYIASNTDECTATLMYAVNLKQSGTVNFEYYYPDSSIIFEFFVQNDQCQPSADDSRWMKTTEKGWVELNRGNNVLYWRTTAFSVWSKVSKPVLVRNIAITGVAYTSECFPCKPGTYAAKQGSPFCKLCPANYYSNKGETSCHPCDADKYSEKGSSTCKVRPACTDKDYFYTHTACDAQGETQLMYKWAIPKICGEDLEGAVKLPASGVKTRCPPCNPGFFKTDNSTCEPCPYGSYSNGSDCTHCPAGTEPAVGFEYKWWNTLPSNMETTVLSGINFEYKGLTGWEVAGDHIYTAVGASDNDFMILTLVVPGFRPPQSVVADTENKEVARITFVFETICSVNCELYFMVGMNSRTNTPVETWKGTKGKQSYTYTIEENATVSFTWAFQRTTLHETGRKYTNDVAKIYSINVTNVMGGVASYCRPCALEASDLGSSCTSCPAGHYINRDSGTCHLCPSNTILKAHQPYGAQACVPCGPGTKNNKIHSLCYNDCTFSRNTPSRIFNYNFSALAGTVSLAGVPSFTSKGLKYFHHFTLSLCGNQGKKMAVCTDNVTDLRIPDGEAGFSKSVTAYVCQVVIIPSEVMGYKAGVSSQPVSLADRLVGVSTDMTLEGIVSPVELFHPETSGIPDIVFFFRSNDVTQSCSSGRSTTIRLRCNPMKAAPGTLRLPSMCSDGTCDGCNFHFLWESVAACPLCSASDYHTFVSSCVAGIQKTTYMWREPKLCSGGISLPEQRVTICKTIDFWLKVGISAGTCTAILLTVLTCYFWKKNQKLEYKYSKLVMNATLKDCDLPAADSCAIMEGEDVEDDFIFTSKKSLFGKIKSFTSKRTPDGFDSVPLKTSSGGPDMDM


Target: T1, mouse IGFR-like receptor (mouse)
Assay: Western blot, Min6 cell lysate (weak)

| binding | Binder |
| --- | --- |
| binds | EIG-D 26D7 (antibody, V domains shown, Mouse monoclonal antibody from a hybridoma; Only the variable regions are tied to the clone by name; The constant regions are not tied to the clone) VH: QVQLQQPGADLVRPGSSVKLSCKASGYSFTSYWMDWVKQRPGQGLEWIGNIYPSDGETHYNQKFKDKATLTVDKSSSTAYMQLSSLTSEDSAVYYCARLYSEYGSWGQGTTLTVSS VL: DIVMTQSPSSLTVTTGEKVTMSCKSSQSLLNSGNQKNYLTWYQQRPGQPPKLLIYWASTRDSGVPDRFTGSGSGTDFTLTISSVQAADLAVYYCQNDYSYPLTFGAGTKLELKR |
| binds | EIG-B 18B2 (antibody, V domains shown, Rat monoclonal antibody from a hybridoma; Only the variable regions are tied to the clone by name; also called EIG-B 1862) VH: QVQLKESGPGLVQPSQTLSLTCTVSGFSLTSYHISWVRQPPGKGLEWIAAISSGGDTYYNSLLKSRLSISRDTSKSQVFLKMNRLQTEDTAFYFCNGESYWGQGTLVTVSS VL: DVVLTQSPATLSVTPGERISLSCRASENIDTYLHWFQQKPNESPRLLIKFASQSISGIPSRFSGSGSGRDFTLSINGVELEDLSIYYCQQGNILPYTFGAGTRLELKR |
| binds | EIG-B 10D9 (antibody, V domains shown, Rat monoclonal antibody from a hybridoma; Only the variable regions are tied to the clone by name; The constant regions are not tied to the clone) VH: QVQLKESGPGLVQPSQTLSLTCTVSGFSLTSYHISWVRQPPGKGLEWIAAISSGGDTYYNSLLKSRLSISRDTSKSQVFLKMNRLQTEDTAFYFCNGESYWGQGTLVTVSS VL: DVVLTQSPATLSVTPGERISLSCRASENIDTYLHWFQQKPNESPRLLIKFASQSISGIPSRFSGSGSGTDFTLSINGVELEDLSIYYCQQGNILPYTFGAGTKLELKR |
